In patent US20250129173A1 (SHENYANG SUNSHINE PHARMACEUTICAL, published 2025):
These are yes or no findings as the source states them, for the method shown. Some binding calls cover weakened binding; strength is not graded here. Tags and fused reporters may be left off the sequences shown.

Biological target: T1, Fc fusion protein of human PRLR-ECD functional structural domain Fibronectin type-III 2 (129-229) (human) (UniProt P16471)
T1 sequence: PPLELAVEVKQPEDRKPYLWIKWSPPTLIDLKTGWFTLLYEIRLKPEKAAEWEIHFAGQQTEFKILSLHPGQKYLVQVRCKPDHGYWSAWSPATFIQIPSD
Assay: Western blot, reductively denatured Fc fusion of the domain

binding: binds
B1: murine-derived anti-human PRLR monoclonal antibody SPGA02-260 (antibody, V domains shown)
VH: QVQLKESGPGLVAPSQSLSITCTVSGFSLTRNGVSWVRQPPGKGLEWLGIIWGDGSTNYHSALISRLSISKDNSKSQVFLKLNSLQTDDTATYYCAKEGLYYYGRYFDVWGAGTTVTVSS
VL: DIVMTQSHKFMSTSVGDRVSITCKASQDVGSAVAWYQQKPGQSPKVLIYWASTRHTGVPDRFTGSGSGTDFTLTISNVQSEDLADYFCQQYSNYPLTFGGGTKLEIR
notes: Mouse monoclonal antibody purified from hybridoma supernatant by protein A; also called SPHA02-260
